Measured values taken from PubChem BioAssay AID493014 (National Center for Advancing Translational Sciences (NCATS), 2011).
The list shows a part of the results. Shown are side measurements of this screen, not its main read-out; they come without a call. Most of these compounds were active or inconclusive in the main read-out, so they are no random draw. Potencies come from curve fits of mixed quality, noted in brackets.

Test: qHTS Assay to Find Inhibitors of Chronic Active B-Cell Receptor Signaling
Settings: ABC-DLBCL IkBa-CBG/CBR reporter, luminescence ratio (green luciferase fused to IkBa over red control in TMD8 lymphoma cells), 4 h
Method in brief: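 TMD8 human ABC-DLBCL cells with doxycycline-inducible IκBα–green luciferase fusion and unfused red luciferase, in 0.5% FBS medium; compounds up to 46 uM, 4 h at 37C. Green/red luminescence ratio, filter-overlap corrected, fitted to concentration-response curves.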

[1] = measured here: CBR red luminescence, cell number
[2] = measured here: IkBa-CBG green luminescence

## CCCC(=O)Nc1ccc(N2CCN(C(=O)c3cccs3)CC2)cc1
[1]
  AC50: 20.6 µM [falling, partial curve, poor fit]

## CC(=O)N(C)C1(c2nnnn2CCOC(=O)Nc2cccc3ccccc23)CCCC1
[1]
  AC50: 0.92 µM [rising, partial curve]

## O=c1c2c(nc3cc(-c4ccccc4)[nH]n13)CCC2
[1]
  AC50: 5.01 µM [falling, full curve, poor fit]

## COc1ccc(-c2oc3cccnc3c2/C=C/c2ccc(OC)c(OC)c2)cc1
[1]
  AC50: 14.1 µM [falling, partial curve]

## O=C(NCCc1ccccn1)c1ccc2nc(Cc3ccccc3F)oc2c1
[1]
  AC50: 3.55 µM [rising, partial curve, poor fit]

## COc1cc(C(=O)CCN2CCC(c3ccccc3)C2)cc(OC)c1OC (centres undefined)
[1]
  AC50: 20 µM [falling, single point]
[2]
  AC50: 8.91 µM [rising, partial curve, poor fit]

## CCSc1nnc(NC(=O)/C=C/c2ccco2)s1
[1]
  AC50: 5.01 µM [falling, full curve]

## O=C(Nc1cc(S(=O)(=O)N2CCOCC2)ccc1Cl)c1cc2ccccc2o1
[1]
  AC50: 1.46 µM [rising, partial curve, poor fit]

## COc1ccc(-c2nn(-c3ccccc3)cc2C(=O)O)cc1
[1]
  AC50: 35.5 µM [falling, single point]

## CCOCCCNC(=O)C(c1ccc(OC)cc1)N(Cc1ccc2c(c1)OCO2)C(=O)c1cnccn1 (centres undefined)
[1]
  AC50: 6.31 µM [rising, single point]

## COc1cccc(/C=N/Nc2ccc([N+](=O)[O-])cn2)c1O
[1]
  AC50: 2.24 µM [falling, full curve]

## Cc1ccc(C(=O)NC(C)c2ccncc2)o1 (centres undefined)
[1]
  AC50: 2.24 µM [rising, full curve]

## O=C(CN(c1ccccc1)S(=O)(=O)c1ccccc1[N+](=O)[O-])NN=C1CCCCCCC1
[1]
  AC50: 35.5 µM [falling, single point]

## COc1cc(/C=N/NC(=S)NCCN2CCOCC2)cc(OC)c1O
[1]
  AC50: 0.116 µM [rising, full curve, poor fit]
[2]
  AC50: 16.4 µM [falling, partial curve, poor fit]

## COc1ccc(Cl)cc1NC(=O)c1cc(S(=O)(=O)N(C)Cc2ccccc2)ccc1F
[1]
  AC50: 35.5 µM [rising, single point]

## Cc1cnc(C)c(N2CCN(Cc3cn(C)nc3-c3cccc(Cl)c3)CC2)n1
[1]
  AC50: 0.891 µM [rising, full curve, poor fit]

## COc1ccc(Cl)cc1S(=O)(=O)NCc1cccnc1
[1]
  AC50: 29.1 µM [rising, single point]

## Cc1ccc(-c2cc(C(=O)N/N=C/c3ccccc3O)n[nH]2)o1
[1]
  AC50: 0.794 µM [falling, full curve]

## Cn1cc(/C=N\NC(=O)c2cccs2)c2ccccc21
[1]
  AC50: 12.6 µM [falling, partial curve]

## Cc1cccc(-n2cnc3cc(C(=O)N4CCc5ccccc54)ccc32)c1
[1]
  AC50: 13 µM [falling, partial curve]

## COc1ccc(C=O)cc1OS(=O)(=O)c1ccccc1[N+](=O)[O-]
[1]
  AC50: 3.66 µM [rising, single point]

## Cn1ccc(C(=O)N/N=C/c2c[nH]c3ccccc23)n1
[1]
  AC50: 2.82 µM [falling, full curve, poor fit]

## Cc1cc(NCc2ccccn2)ccc1Br
[1]
  AC50: 8.91 µM [rising, partial curve]

## Cc1cnc(NC(=O)C2COc3ccccc3O2)s1 (centres undefined)
[1]
  AC50: 7.08 µM [falling, partial curve]

## CC(=O)C1=C(S(=O)(=O)c2ccc(C)cc2)CS(=O)(=O)C1
[1]
  AC50: 22.4 µM [falling, single point]

## c1ccc(CN2CCN(CCOCCOc3cccc4ccccc34)CC2)cc1
[1]
  AC50: 35.5 µM [falling, single point]

## Cc1ccc(-c2cc(-c3ccccc3)no2)c(O)c1
[1]
  AC50: 2.06 µM [falling, partial curve]

## O=C(/C=C/Nc1ccccc1C(=O)O)c1cccs1
[1]
  AC50: 29.1 µM [falling, single point]

## CCSc1nncn1/N=C/c1ccc(OC)c(OC)c1
[1]
  AC50: 16.4 µM [rising, single point]
[2]
  AC50: 16.4 µM [falling, partial curve, poor fit]

## Cc1cc(=O)n(-c2ccc(Cl)cc2)c(=O)[nH]1
[1]
  AC50: 12.6 µM [rising, partial curve]

## O=C(c1ccoc1)N1CCC2(CC1)Oc1ccc(Cl)cc1C(=O)C21CC(c2cccnc2)=NO1 (centres undefined)
[1]
  AC50: 0.794 µM [rising, partial curve, poor fit]

## CCCNS(=O)(=O)c1ccc(OCC(=O)Nc2ccc3c(c2)OCCO3)cc1
[1]
  AC50: 29.1 µM [falling, single point]

## O=c1nc(N2CCOCC2)ccn1-c1nc(-c2ccccc2)oc1-c1ccccc1
[1]
  AC50: 10 µM [rising, partial curve, poor fit]

## O=C(Nc1nnc(-c2ccncc2)o1)c1ccc(Br)s1
[1]
  AC50: 2.82 µM [falling, full curve]

## O=C(Nc1ccc(N2CCOCC2)cc1)c1ccc2c(c1)OCO2
[1]
  AC50: 3.55 µM [falling, partial curve, poor fit]

## CC(C)c1ccc(N2CCN(C(=O)c3ccccc3NC(=O)/C=C(\C(=O)O)c3ccccc3)CC2)cc1
[1]
  AC50: 5.8 µM [falling, partial curve, poor fit]

## Cc1cccc2nc(-c3ccccc3)nc(N[C@@H](CO)c3ccccc3)c12
[1]
  AC50: 20.6 µM [falling, partial curve]

## CCc1nc2cccnc2n1-c1ccc(CC(=O)NCCOC)cc1
[1]
  AC50: 7.08 µM [falling, partial curve]

## Cc1ccc(OCc2csc(N)n2)cc1
[1]
  AC50: 28.2 µM [falling, single point]

## O=C(CSc1nc(-c2ccccc2)nc2ccccc12)Nc1nccs1
[1]
  AC50: 0.316 µM [falling, full curve, poor fit]

## COc1ccc(C(=O)Sc2nncc3ccccc23)cc1
[1]
  AC50: 11.2 µM [falling, single point]

## COc1ccc2nc3n(c(=O)c2c1)-c1ccc(Cl)cc1C(=O)NC3Cc1ccccc1 (centres undefined)
[1]
  AC50: 20.6 µM [rising, partial curve, poor fit]

## O=C(O)c1nnn(-c2cccc(C(F)(F)F)c2)c1-c1ccccc1
[1]
  AC50: 22.4 µM [rising, single point]

## Cc1ccc(S(=O)(=O)CC(=O)NCc2ccc(Cl)cc2)cc1
[1]
  AC50: 6.51 µM [rising, single point]

## CCOC(=O)C1=C(C)N(C)C(C)=C(C(=O)OCC)C1c1ccc(C(=O)OC)cc1
[1]
  AC50: 0.651 µM [rising, partial curve, poor fit]

## COc1ccc(-c2noc(CN(C)S(=O)(=O)c3ccc(C)cc3)n2)cc1
[1]
  AC50: 29.1 µM [rising, single point]

## COC(=O)CCC(=O)N1CCCC(CO)(Cc2ccccc2)C1 (centres undefined)
[1]
  AC50: 11.2 µM [rising, partial curve, poor fit]

## CCCCCCC(=O)OCC(=O)c1ccc2c(c1)NC(=O)CO2
[1]
  AC50: 2.82 µM [rising, full curve, poor fit]

## COc1ccc(CN2CSC(=S)N(Cc3ccc(OC)cc3)C2)cc1
[2]
  AC50: 25.1 µM [falling, single point]

## COc1ccccc1-c1n[nH]c(=S)o1
[1]
  AC50: 0.517 µM [rising, partial curve, poor fit]

## O=C(CN1CCCc2ccccc21)N/N=C/c1ccccc1O
[2]
  AC50: 7.31 µM [falling, partial curve]

## O=C(Nc1ccccc1C(=O)O)c1cc(S(=O)(=O)NCc2ccccc2)ccc1Cl
[1]
  AC50: 0.398 µM [falling, full curve]

## Cc1cc([N+](=O)[O-])cnc1NC(C)c1ccccc1 (centres undefined)
[1]
  AC50: 35.5 µM [falling, partial curve, poor fit]

## COC(=O)C1=C(C)N(c2ccc(OC)cc2)C(=O)/C1=C\c1cccs1
[1]
  AC50: 18.4 µM [rising, partial curve, poor fit]

## CCS(=O)(=O)n1nc(-c2ccc(Cl)cc2)nc1N
[1]
  AC50: 1.46 µM [rising, full curve]

## CSc1cccc(NS(=O)(=O)c2ccc3c(c2)oc(=O)n3C)c1
[1]
  AC50: 3.66 µM [rising, single point]

## O=C(O)c1cc(-c2ccc(-c3ccc(F)cc3)o2)nc2ccccc12
[1]
  AC50: 11.2 µM [falling, partial curve, poor fit]

## Nc1nc(NC(=O)c2cccs2)nn1-c1ccccc1
[1]
  AC50: 2 µM [falling, full curve]

## COc1cccc(NC(=O)CSc2c3c(nc4ccccc24)CCCC3)c1
[1]
  AC50: 20.6 µM [falling, partial curve]

## CCCn1nc(C(=O)Nc2nc3ccccc3[nH]2)c2ccccc2c1=O
[1]
  AC50: 20.6 µM [falling, partial curve]

## Cc1cc(-c2ccccc2)c2c(=O)n(-c3ccccc3)[nH]c2n1
[1]
  AC50: 3.16 µM [falling, partial curve, poor fit]

## CCOC(=O)SC1=N/C(=C\c2ccc(N(C)C)cc2)C(=O)S1
[1]
  AC50: 5.17 µM [rising, full curve]

## CCCOc1ccc(C(=O)NC(=S)Nc2nc3ccc(C)cc3s2)cc1
[1]
  AC50: 0.794 µM [falling, full curve, poor fit]

## Cc1ccc(S/C=C\C(=O)c2ccccc2)cc1
[1]
  AC50: 18.4 µM [falling, single point]
[2]
  AC50: 18.4 µM [falling, partial curve, poor fit]

## CC(=O)Nc1ccc(-c2csc(Nc3ncccn3)n2)cc1
[1]
  AC50: 1 µM [rising, partial curve, poor fit]
